This passage reports binding results from paper PMC8884905, “RECON syndrome is a genome instability disorder caused by mutations in the DNA helicase RECQL1” (The Journal of Clinical Investigation, 2022).

Chains of the proteins cited; added tags and fusions are not shown. Lines headed by an entry give the natural chain unless they say otherwise; changes in a name come on top.
UniProt P46063: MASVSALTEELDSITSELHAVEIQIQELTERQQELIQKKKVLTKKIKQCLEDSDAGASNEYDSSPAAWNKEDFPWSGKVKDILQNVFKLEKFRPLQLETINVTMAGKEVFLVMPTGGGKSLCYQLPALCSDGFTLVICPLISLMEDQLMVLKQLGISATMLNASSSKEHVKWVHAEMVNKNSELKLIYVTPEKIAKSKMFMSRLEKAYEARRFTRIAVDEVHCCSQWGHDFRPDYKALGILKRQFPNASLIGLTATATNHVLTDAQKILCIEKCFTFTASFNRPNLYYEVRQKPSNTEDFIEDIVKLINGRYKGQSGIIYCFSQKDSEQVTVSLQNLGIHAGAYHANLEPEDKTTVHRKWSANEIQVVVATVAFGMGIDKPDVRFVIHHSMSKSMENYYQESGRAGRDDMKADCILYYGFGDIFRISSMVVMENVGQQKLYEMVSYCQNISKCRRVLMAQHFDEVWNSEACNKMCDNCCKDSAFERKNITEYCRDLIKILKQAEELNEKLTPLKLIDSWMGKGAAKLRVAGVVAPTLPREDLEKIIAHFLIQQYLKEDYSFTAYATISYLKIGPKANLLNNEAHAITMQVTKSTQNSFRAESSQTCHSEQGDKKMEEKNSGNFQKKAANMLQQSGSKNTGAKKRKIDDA
UniProt P09874: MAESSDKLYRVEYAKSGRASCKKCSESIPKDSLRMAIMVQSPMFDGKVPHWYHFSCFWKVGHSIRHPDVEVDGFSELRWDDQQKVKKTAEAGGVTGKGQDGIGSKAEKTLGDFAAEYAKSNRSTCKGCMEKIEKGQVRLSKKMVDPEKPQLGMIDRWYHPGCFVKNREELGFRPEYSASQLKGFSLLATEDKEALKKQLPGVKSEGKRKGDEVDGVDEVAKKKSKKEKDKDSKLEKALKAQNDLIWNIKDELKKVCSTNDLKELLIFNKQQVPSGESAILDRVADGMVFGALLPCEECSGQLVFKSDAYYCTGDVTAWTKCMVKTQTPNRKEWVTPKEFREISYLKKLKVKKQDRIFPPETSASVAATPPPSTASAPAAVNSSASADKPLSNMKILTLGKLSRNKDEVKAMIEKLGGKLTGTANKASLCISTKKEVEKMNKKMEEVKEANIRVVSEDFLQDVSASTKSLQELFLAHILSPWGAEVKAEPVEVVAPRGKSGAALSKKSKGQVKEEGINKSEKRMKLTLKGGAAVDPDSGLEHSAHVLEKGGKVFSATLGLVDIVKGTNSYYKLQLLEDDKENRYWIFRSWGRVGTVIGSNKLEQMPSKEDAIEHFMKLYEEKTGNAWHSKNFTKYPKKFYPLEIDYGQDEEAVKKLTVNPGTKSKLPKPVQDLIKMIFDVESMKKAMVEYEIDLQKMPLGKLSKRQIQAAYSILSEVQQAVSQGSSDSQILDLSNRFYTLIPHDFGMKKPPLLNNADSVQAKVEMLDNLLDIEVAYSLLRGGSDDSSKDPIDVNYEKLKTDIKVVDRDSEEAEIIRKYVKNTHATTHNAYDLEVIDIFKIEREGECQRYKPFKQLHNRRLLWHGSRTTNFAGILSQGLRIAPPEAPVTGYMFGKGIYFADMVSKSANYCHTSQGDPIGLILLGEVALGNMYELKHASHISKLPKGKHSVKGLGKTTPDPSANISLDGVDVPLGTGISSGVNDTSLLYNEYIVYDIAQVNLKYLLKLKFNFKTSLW

This experiment concerns the target p.A459S mutant RECQL1 protein (in whole-cell extract) (human) (UniProt P46063). As to the kind of experiment: co-IP; anti-RECQL1 antibody (5 ug, A300-450A) or nonspecific IgG on protein A agarose beads, 5 mg whole-cell extract; lysis buffer without EDTA, with 250 units/mL benzonase and 1.5 mM MgCl2.

Results are given in words; binding and its absence hold for the method and conditions named. Binding seen in cells or lysates may run through a third protein. Some results given as binding are weak or reduced against the parent protein; the word gives no strength.

As to “poly-ADP-ribose polymerase 1 (from UniProt P09874 1-1014)”, the binding result is listed as “binds”.
